# Source: the supplement of paper PMC12067093, “Discovery and optimisation of a covalent ligand for TRIM25 and its application to targeted protein ubiquitination” (Chemical Science, 2025)
# Sequences of proteins named here, by UniProt entry; tags and fusion partners are left off. A change or cut given only in a name is not applied to a line headed by its entry.
# UniProt Q03169: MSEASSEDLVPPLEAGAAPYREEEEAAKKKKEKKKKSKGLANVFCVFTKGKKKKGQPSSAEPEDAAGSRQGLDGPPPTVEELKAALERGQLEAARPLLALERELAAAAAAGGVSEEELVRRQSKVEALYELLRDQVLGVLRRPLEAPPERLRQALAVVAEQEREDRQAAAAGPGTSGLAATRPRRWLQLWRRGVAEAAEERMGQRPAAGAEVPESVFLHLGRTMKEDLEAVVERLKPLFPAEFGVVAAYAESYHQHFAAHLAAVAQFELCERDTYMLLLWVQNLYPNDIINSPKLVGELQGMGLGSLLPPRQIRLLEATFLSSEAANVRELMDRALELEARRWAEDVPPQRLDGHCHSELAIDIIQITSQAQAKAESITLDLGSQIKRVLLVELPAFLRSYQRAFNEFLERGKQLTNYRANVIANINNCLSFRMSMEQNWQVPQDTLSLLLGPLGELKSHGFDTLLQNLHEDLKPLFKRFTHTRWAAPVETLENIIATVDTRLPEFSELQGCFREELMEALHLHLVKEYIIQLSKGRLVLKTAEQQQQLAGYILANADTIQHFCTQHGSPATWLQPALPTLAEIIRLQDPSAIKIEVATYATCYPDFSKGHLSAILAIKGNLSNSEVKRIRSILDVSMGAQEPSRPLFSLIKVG
# UniProt Q68CZ2: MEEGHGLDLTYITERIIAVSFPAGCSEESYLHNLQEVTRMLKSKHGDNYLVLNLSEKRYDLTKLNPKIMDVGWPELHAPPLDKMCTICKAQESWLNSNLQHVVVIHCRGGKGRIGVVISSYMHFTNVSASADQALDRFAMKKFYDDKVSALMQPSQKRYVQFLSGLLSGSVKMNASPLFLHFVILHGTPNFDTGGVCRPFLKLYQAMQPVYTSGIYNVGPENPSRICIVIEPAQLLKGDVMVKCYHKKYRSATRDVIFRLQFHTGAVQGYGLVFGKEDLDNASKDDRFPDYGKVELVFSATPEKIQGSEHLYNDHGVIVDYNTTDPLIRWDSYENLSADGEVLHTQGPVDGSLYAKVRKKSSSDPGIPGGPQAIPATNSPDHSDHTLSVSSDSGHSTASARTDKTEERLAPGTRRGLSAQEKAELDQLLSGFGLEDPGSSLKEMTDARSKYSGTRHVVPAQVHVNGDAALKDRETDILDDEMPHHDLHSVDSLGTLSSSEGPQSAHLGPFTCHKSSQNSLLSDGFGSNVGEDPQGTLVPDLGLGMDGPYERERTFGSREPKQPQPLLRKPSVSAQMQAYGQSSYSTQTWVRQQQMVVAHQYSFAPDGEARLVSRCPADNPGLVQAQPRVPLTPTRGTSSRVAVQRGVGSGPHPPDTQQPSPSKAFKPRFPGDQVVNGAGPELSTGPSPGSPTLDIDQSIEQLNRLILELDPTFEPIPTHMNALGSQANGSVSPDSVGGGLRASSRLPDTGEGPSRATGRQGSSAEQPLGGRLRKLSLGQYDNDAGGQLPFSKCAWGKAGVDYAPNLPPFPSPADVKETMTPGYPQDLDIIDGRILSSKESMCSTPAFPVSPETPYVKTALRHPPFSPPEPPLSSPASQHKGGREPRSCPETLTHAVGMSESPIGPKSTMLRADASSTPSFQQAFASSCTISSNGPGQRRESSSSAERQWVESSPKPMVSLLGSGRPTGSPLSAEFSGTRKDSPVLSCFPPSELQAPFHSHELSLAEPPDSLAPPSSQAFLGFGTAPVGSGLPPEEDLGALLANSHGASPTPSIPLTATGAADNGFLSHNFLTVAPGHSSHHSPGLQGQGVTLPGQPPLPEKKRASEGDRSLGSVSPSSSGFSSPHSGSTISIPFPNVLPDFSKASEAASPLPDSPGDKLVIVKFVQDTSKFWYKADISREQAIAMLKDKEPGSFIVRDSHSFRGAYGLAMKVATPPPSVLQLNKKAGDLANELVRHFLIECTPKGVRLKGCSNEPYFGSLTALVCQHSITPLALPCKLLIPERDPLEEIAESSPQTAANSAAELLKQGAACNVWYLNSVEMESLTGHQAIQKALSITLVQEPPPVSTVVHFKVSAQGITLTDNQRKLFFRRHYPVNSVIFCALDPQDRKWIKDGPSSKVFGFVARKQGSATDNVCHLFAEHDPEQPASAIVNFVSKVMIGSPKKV
# UniProt Q9Y490: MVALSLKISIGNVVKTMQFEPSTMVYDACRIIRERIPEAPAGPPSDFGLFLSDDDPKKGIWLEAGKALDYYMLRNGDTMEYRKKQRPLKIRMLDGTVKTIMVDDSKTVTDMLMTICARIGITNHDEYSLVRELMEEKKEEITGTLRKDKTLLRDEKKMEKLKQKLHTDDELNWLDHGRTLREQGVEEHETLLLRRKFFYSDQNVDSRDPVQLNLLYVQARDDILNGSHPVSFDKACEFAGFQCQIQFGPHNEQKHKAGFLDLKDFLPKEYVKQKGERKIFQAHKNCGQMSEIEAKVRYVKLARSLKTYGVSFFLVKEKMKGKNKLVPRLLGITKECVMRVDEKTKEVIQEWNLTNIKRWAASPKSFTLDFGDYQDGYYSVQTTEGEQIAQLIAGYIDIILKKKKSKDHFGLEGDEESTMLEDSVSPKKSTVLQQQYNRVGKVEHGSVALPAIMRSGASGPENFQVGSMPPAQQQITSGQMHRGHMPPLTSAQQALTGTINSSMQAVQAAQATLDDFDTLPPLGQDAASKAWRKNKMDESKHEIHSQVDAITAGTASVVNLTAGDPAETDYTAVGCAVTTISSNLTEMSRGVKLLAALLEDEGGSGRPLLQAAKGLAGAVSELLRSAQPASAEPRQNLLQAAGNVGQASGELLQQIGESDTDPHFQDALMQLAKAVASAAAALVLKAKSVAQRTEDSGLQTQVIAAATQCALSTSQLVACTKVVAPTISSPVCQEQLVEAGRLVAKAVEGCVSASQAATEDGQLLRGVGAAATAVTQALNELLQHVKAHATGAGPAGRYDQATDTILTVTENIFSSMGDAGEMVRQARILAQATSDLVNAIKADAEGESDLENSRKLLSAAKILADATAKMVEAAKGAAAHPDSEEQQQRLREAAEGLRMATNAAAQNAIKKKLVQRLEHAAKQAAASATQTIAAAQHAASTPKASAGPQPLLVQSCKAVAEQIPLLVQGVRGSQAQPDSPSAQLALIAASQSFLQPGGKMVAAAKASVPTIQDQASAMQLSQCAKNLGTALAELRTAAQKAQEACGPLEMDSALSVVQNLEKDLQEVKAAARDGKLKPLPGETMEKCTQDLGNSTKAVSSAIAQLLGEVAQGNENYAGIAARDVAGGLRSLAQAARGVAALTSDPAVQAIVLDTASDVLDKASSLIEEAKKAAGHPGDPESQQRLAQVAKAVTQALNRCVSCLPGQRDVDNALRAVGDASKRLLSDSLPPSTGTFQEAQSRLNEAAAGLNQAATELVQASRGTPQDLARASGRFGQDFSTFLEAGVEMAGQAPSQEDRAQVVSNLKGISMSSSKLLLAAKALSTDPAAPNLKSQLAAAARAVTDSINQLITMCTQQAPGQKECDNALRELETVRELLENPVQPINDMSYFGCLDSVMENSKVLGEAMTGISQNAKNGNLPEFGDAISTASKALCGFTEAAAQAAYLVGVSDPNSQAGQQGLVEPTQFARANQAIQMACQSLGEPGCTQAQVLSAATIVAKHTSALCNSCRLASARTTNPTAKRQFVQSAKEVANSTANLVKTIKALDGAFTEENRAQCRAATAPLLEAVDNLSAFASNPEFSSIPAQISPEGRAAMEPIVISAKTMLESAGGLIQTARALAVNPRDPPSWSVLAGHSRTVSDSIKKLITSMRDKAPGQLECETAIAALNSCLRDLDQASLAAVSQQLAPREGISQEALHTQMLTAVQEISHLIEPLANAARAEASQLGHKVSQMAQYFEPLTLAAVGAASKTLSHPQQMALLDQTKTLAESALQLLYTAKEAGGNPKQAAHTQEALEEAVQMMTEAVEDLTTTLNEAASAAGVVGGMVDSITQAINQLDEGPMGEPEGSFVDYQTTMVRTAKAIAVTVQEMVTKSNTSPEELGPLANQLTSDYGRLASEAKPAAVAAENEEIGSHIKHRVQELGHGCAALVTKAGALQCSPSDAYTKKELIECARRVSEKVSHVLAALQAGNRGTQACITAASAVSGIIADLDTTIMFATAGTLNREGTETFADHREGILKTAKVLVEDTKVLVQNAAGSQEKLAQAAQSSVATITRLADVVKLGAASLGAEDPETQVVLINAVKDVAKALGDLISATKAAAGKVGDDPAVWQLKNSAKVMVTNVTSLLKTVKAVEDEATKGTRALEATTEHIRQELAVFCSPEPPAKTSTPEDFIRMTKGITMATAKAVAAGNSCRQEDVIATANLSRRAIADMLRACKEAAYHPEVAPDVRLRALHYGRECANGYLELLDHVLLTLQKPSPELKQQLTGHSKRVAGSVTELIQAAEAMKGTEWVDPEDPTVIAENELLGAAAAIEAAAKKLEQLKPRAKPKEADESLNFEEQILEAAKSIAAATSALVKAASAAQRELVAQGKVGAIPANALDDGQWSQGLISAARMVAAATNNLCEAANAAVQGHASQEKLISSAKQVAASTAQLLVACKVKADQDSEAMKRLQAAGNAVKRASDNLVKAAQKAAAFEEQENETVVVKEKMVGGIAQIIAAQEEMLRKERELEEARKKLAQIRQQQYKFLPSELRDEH
# UniProt Q9H497: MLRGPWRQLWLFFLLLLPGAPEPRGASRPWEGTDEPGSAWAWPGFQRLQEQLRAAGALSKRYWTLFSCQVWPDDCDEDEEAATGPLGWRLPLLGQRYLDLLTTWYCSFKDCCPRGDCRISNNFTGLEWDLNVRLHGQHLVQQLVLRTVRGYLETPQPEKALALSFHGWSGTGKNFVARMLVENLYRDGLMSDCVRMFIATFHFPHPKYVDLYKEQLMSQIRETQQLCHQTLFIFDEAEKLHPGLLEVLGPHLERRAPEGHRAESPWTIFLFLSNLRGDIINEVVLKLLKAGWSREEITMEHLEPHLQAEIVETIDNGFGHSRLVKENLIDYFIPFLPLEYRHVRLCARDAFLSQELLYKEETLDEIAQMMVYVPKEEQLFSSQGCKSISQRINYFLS
# UniProt O94826, whole entry, looked up: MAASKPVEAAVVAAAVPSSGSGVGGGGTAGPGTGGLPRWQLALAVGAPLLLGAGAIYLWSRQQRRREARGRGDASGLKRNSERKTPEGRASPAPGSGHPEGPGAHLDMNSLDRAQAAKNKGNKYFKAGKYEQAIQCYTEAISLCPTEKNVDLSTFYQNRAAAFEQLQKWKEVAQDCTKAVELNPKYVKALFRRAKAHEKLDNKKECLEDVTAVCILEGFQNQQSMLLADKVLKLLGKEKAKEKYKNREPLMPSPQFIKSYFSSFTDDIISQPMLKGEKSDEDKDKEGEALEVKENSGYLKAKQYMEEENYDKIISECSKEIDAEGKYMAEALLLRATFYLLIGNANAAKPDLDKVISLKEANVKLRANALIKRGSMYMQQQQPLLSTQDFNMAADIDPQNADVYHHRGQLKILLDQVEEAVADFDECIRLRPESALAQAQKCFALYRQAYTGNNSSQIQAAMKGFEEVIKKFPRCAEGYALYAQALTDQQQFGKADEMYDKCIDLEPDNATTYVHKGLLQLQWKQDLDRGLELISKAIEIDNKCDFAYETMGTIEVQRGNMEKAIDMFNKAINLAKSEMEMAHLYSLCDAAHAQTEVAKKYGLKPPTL
# UniProt Q92973: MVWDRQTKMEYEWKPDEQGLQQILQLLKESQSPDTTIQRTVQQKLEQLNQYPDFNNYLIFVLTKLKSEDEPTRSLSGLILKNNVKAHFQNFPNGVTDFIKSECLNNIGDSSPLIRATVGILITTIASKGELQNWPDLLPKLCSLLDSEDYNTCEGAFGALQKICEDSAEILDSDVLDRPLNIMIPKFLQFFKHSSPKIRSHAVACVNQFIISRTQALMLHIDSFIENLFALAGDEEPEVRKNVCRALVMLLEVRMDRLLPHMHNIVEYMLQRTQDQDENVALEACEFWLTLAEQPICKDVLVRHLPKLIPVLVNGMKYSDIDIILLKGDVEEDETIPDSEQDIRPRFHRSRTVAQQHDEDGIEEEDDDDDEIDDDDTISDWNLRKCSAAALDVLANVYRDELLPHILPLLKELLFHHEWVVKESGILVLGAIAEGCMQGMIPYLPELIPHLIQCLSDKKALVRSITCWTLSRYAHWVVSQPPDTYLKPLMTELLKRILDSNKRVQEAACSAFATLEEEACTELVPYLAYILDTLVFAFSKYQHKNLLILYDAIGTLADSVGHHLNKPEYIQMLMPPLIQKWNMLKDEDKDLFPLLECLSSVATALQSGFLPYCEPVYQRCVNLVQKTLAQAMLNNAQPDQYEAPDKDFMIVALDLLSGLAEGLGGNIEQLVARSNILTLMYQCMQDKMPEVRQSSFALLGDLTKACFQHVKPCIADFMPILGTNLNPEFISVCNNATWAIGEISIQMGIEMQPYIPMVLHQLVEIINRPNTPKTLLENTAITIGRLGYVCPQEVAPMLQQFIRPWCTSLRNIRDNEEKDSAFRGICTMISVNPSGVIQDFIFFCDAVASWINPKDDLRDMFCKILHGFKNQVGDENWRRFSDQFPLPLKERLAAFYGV
# This is one part of the list.
# Compound: CC1Cc2ccccc2N1C(=O)C1CCCN(C1)C(=O)CCl (mixture of isomers) [TRIM25 ligand 11 (diastereomer mixture)]
# Experiment: probe-labelled cysteine peptide fold change vs DMSO (competition) (log2 fold change); higher = less target engagement (more negative = stronger competition)
# Details: 50 µM; THP-1; incubation time: 4 h
# 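Also: competitive chemoproteomic profiling in live THP-1 cells with an iodoacetamide desthiobiotin (IA-DTB) probe, comparing probe-labelled peptide intensities in compound-treated cells against DMSO-treated controls.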
row,Target,probe-labelled cysteine peptide fold change
1,TNFAIP2_Q03169_45_GLANVFCVFTK (UniProt Q03169),-0.274
2,TNS3_Q68CZ2_25_IIAVSFPAGCSEESYLHNLQEVTR (UniProt Q68CZ2),-0.321
3,TLN1_Q9Y490_1509_HTSALCNSCR (UniProt Q9Y490),-0.00269
4,TOR3A_Q9H497_227_ETQQLCHQTLFIFDEAEK (UniProt Q9H497),0.126
5,TMA16_Q96EY4_162_ICANDAIPK (UniProt Q96EY4),0.0122
6,TLN1_Q9Y490_1506+1509_HTSALCNSCR (UniProt Q9Y490),0.154
7,TOMM40_O96008_76_TPGAATASASGAAEDGACGCLPNPGTFEECHRK (UniProt O96008),-0.316
8,TNFAIP2_Q03169_512_LPEFSELQGCFREELMEALHLHLVK (UniProt Q03169),-0.00748
9,TMEM173_Q86WV6_206_LYILLPLDCGVPDNLSMADPNIR (UniProt Q86WV6),-0.043
10,TM2D3_Q9BRN9_166_DHVHCLGNR (UniProt Q9BRN9),-0.163
11,TLN2_Q9Y4G6_1047_AHEACGPMEIDSALNTVQTLK (UniProt Q9Y4G6),0.0238
12,TMED3_Q9Y3Q3_144_VTALTQMESACVTIHEALK (UniProt Q9Y3Q3),0.0887
13,TPD52L2_O43399_74_HCGELK (UniProt O43399),-0.108
14,TP53BP2_Q13625_1083_EGDCMTIIHREDEDEIEWWWAR (UniProt Q13625),-0.29
15,TOMM70_O94826_588_SEMEMAHLYSLCDAAHAQTEVAKK (UniProt O94826),-0.0954
16,TOMM70_O94826_317_IISECSK (UniProt O94826),0.0394
17,TLN1_Q9Y490_2161_ALEATTEHIRQELAVFCSPEPPAK (UniProt Q9Y490),-0.00307
18,TMEM206_Q9H813_128_EVDRYDAPGIALYPGQAQLLSCK (UniProt Q9H813),-0.376
19,TNRC18_O15417_475_ELLKPEADPRPCER (UniProt O15417),-0.0794
20,TONSL_Q96HA7_1345_RLCAEDR (UniProt Q96HA7),0.0935
21,TMEM141_Q96I45_86_CNNLWLFLETGQLPK (UniProt Q96I45),0.0737
22,TNIP1_Q15025_171_LETTLSVCAEEPDHGQLFTHLGR (UniProt Q15025),-0.0744
23,TNPO1_Q92973_153_LCSLLDSEDYNTCEGAFGALQK (UniProt Q92973),-0.114

# Two entries picked at random from the list so far:
row,Target,probe-labelled cysteine peptide fold change
8,TNFAIP2_Q03169_512_LPEFSELQGCFREELMEALHLHLVK (UniProt Q03169),-0.00748
1,TNFAIP2_Q03169_45_GLANVFCVFTK (UniProt Q03169),-0.274
